The other results are listed elsewhere or left out. These are further read-outs of the screen, such as a control signal, another cell line or another target. No call is given for them. Compounds called inactive in the main read-out are mostly missing here. Potencies come from curve fits of mixed quality, noted in brackets.
Assay: qHTS Assay for Lipid Storage Modulators in Drosophila S3 Cells;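 as to cell number change: cells counted by Cell Tracker Red CMTPX staining in the red channel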
Settings: BODIPY lipid droplet fluorescence, 18-24 h; for cell number change: measured here: cell count max response, cells fed with added oleic acid
Outline: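 Laser-scanning cytometry quantifies lipid droplet accumulation (500–530 nm total intensity; droplet/cell object ratio) in oleic acid-fed (400 uM added) Drosophila S3 cells treated with a concentration series. 20 uM Triacsin C defined 100% inhibition.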

[1] = measured here: cell number channel AC50, cells fed with added oleic acid
[2] = measured here: lipid fluorescence (Fed channel) AC50, cells fed with added oleic acid

| SMILES | cell number change | AC50 [1] | AC50 [2] |
| --- | --- | --- | --- |
| Cc1cccc(C)c1NC(=O)CSc1nnc(-c2ccoc2C)n1CCc1ccccc1 | 25.4% | 0.0731 µM [rising, full curve, poor fit] |  |
| O=C1Cc2ccccc2C(=O)N1OCc1ccc(Cl)cc1Cl | -0.934% |  | 6.51 µM [rising, partial curve, poor fit] |
| CCCC12CN3CC(C)(CN(C1)C3c1ccc3c(c1)OCO3)C2=O (stereo unspecified) | -11.1% |  | 1.84 µM [rising, partial curve] |
| Nc1nc(-c2ccc(Cl)cc2)nc(-c2ccc(Cl)cc2)n1 | 12% |  | 1.64 µM [rising, partial curve] |
| Cc1cc(C)n(-c2cccc(CN(C)Cc3nc(-c4cnccn4)no3)c2)n1 | 15.8% |  |  |
| O=C(CC1Nc2ccccc2NC1=O)Nc1ccccc1 (stereo unspecified) | -26.3% |  | 10.3 µM [falling, partial curve] |
| CCOC(=O)N1CCC(N(CCCOC)C(=O)Nc2ccc(CC)cc2)CC1 |  |  | 6.51 µM [falling, single point] |
| CC(C)CN1CCN(Cc2c[nH]c3ccccc23)CC1CCO (stereo unspecified) | 4.01% | 0.206 µM [rising, full curve, poor fit] |  |
| COc1cc(NCCC(=O)c2cccs2)c(OC)cc1Cl | 42.1% |  | 29.1 µM [rising, single point] |
| COc1ccc(N2C(=O)C3CCCN3C2c2cccs2)cc1 (stereo unspecified) |  |  | 6.51 µM [falling, single point] |
| CCOC(=O)c1sc2nccc(OC)c2c1N=CN(C)C | 10.3% |  | 4.61 µM [falling, single point] |
| OCCOCCn1c(-c2ccccc2)nc(=S)c2c1CCCC2 | -18.2% |  | 0.92 µM [falling, single point] |
| CCc1nc2ccccc2[nH]1 | 4.74% |  | 0.116 µM [falling, full curve, poor fit] |
| O=S(=O)(Nc1ccc(Cl)cn1)c1cccs1 | 7.62% |  |  |
| Cc1ccc2nc(/C(C#N)=C/c3ccc(-c4ccccc4C(=O)O)o3)[nH]c2c1 | -83.8% | 29.1 µM [falling, single point] | 29.1 µM [falling, single point] |
| O=C(COC(=O)c1ccc(Cl)s1)c1cc2ccccc2o1 | 27.7% |  | 0.411 µM [falling, single point] |
| Cc1ccc(CCNC(=O)c2cc(-c3ccncc3)nc3ccc(S(=O)(=O)N4CCOCC4)cc23)cc1 |  |  | 0.291 µM [rising, partial curve, poor fit] |
| Cc1cc(C)nc(SCC(=O)N/N=C\c2sccc2C)n1 |  |  | 16.4 µM [rising, partial curve, poor fit] |

Sorted by SMILES length (low to high): 3 of the compounds above

| SMILES | cell number change | AC50 [1] | AC50 [2] |
| --- | --- | --- | --- |
| Cc1cc(C)nc(SCC(=O)N/N=C\c2sccc2C)n1 |  |  | 16.4 µM [rising, partial curve, poor fit] |
| Cc1cc(C)n(-c2cccc(CN(C)Cc3nc(-c4cnccn4)no3)c2)n1 | 15.8% |  |  |
| Cc1ccc(CCNC(=O)c2cc(-c3ccncc3)nc3ccc(S(=O)(=O)N4CCOCC4)cc23)cc1 |  |  | 0.291 µM [rising, partial curve, poor fit] |
